Assay results from publication PMC10163288.
This is one part of the list.

B1: il2ra_site2_2erj_sap_25_mot_HHH_b1_02968_000000142_0001_22_39_H_._09869709d06cb525cd55f400c7a8f8a0_0001_af2_0001_0000300018_0000001_0_0001_af2pred_0001_1_af2pre … (protein)
chain: SSSSSDREEVEEEVRELLEEAERIPDIRRALELLQEAAQLADEIGDPELFELVDEVLQRLSSSSS
B2: il2ra_site2_3nfp_normal_mot_HHH_b1_03957_af2_000000091_0001_1_21_H_._HEEHE_2417_0001_0000300011_0000001_0 (protein)
chain: DSEEVVKAAVESLARFAGVPSVSVSVENGEITVEIEGDDRAAESLELALEIFARRRGIPIHVEVE
B3: il2ra_site1_1z92_normal_mot_31dab337c75776deac3d6f68dc8cd1f9_0001_000000144_0001_35_49_H_._461c5b8021308318a9a61a4e77c13547_0001_0001_0000300020_0000001_0 (protein)
chain: SEEEEEVIEIAAELAGVPPEHIRSILRAVKFAAGGDPRHIERDVEIFLRIAGDPAVEALLEALRR
B4: il2ra_site2_2erj_sap_21_mot_b21041926606bcd66a54c4cea8303fc2_0001_1_af2_000000031_0001_15_29_H_._HHH_b2_06202_af2_0001_0000500031_0000001_0_0001_af2pred_0001_1_ … (protein)
chain: SSSSSDEEEVRRLVEELLEEAKKIKDLREALEVLQEASRLAAEADDEELIELIRKVLQELSSSSS
B5: il2ra_site1_2b5i_normal_mot_0bad3e1dd0b580ac51794e340135530b_0001_af2_000000007_0001_1_12_H_._HHH_b2_00048_0001_0000200010_0000001_0_af2pred_dldesign_0_af2pred (protein)
chain: SSSSSSSPLEEEVRRLLEEAKTLKDFEELNKKLYEALFHARKARDPALVAEVEEVYKELSSSSSS
B6: il2ra_site1_3nfp_sap_12_mot_806eb045a8cbe0685dcd243f9811a1cd_0001_af2_000000070_0001_52_62_H_._45d91642349a1af72601d12b97c7d28f_0001_0001_0000300027_0000001_0_0 … (protein)
chain: DLEEELERLLREQGLPPKMVRLLLDMLRLLAEKLGDPEEAAERLIERLRRAGTPQAARLLEELLK
B7: il2ra_site2_3nfp_sap_23_mot_HHH_b1_02369_000000291_0001_21_37_H_._HHH_b2_05547_af2_0001_0000300005_0000001_0_0001 (protein)
chain: SSSSSEEVEEAERLAEEVLKILEERGDERAFKYVRAVLELLRRTQDPRLAELLREYAETVSSSSS
B8: il2ra_site2_3nfp_normal_mot_HHH_b1_00660_af2_000000090_0001_40_57_H_._HHH_b1_03264_af2_0001_0000800038_0000001_0_af2pred_0001_af2pred_1_swapped (protein)
chain: SSSSDEEEEVKRLLEEAEELLKKGNPEEARKLARRASALAAEEDNHELFILALELLERLESSSSS
B9: il2ra_site1_2b5i_sap_10_mot_HHH_b1_06521_af2_000000219_0001_1_19_H_._4c4ac6cabe4c261757e68d3976ab26f5_0001_af2_0001_0000700057_0000001_0_0001_af2pred_dldesign_0 … (protein)
chain: SSSSDESYDEIYDLFNEALKLRKEGKYEEAKKLLEEALELAKKNKDEKIIAEIEYLLSKLSSSSS
B10: il2ra_site1_2b5i_normal_mot_2cbe48e66a1f39b3fed734b245ab0a04_0001_000000015_0001_17_31_H_._HHH_b2_01252_0001_0000300008_0000001_0_af2pred_dldesign_0_af2pred (protein)
chain: SSSSSDPAEVRARVEELIAKAKELEDEEERDKVLTEALLLARKGRDPELIARVEAVAKELSSSSS
B11: il2ra_site1_3nfp_sap_13_mot_HHH_b1_08723_000000044_0001_1_15_H_._ab64a61eb8ed0a9ede620dc4fdff3441_0001_af2_0001_0000300008_0000001_0_0001_af2pred_0001_af2pred_1 … (protein)
chain: TAEELIERLVRAAVELNNPKLLRKILEDLEKNLGDPEEAERVLKELIEKVLGDPEEAERLVEEAK
B12: il2ra_site2_3nfp_sap_27_mot_HHH_b1_04032_000000208_0001_43_56_H_._1e732a8f1387564f994c80782a8510f9_0001_1_0001_0000300013_0000001_0_0001_af2pred_0001_af2pred (protein)
chain: SSSSSEEVEKLIEEAKELLERGNPEEAEKVLRRAALEAAKAGDFELFAELNRLLEKVLELGSSSS
B13: il2ra_site1_3nfp_normal_mot_HHH_b2_05545_af2_000000027_0001_43_57_H_._HHH_b2_07739_0001_0000400036_0000001_0_af2pred_0001_af2pred_1_swapped (protein)
chain: SSSSSSKEEVEIFERVLKRIAQSKDPEERRELLKELERLLRELGSRAALKFVERLARRVNSSSSS
B14: il2ra_site2_2erj_normal_mot_HHH_b1_01129_af2_000000281_0001_18_33_H_._HHH_b2_07712_0001_0000700042_0000001_0 (protein)
chain: SSSSSSDEEEVEELLERAKEITDLRELYRLLNEALRIASESRNHELLELIYKVMEELASSSSSSS
B15: il2ra_site1_3nfp_normal_mot_eb5a5eebac1e5153f932cc6c3f4b2787_0001_af2_000000065_0001_18_33_H_._HHH_b2_00546_af2_0001_0000500045_0000001_0_af2pred_0001_af2pred (protein)
chain: SSSSDELKEEVRELLEQAEEAAKEGNPLEASKLLEEALRLARENRDHELAEEIFKIMKELASSSS
B16: il2ra_site2_3nfp_normal_mot_HHH_b2_06904_af2_000000235_0001_1_14_H_._5f20bd37ef72b54d9d5808571b4331c8_0001_0001_0000300049_0000001_0_af2pred_0001_af2pred (protein)
chain: GPAELIWELRHEDRELAFALFALRAEVLATNDPRLEELLERALELIEEGNPEEAKEVLKEAEKLP
B17: il2ra_site2_3nfp_normal_mot_HHH_b2_05281_000000198_0001_39_56_H_._HHH_b1_04028_0001_0001200026_0000001_0 (protein)
chain: SSSSSEEEKRVEELIERAEELLKRGNPEEAKELLQEATHLAFELGDSRLFYLLAELAYELRSSSS
B18: il2ra_site2_2erj_sap_18_mot_4b0744c440632e7b239d8b54ed7c44c2_0001_af2_000000182_0001_16_31_H_._HHH_b1_07812_0001_0000400013_0000001_0_0001 (protein)
chain: SSSSDERLHELYELAAELLRLVAEGDEEQFERVFEELRELIEELKSETARKILESLRRLLHSSSS

Target: il2ra, P01589
Test: yeast display titration

| Binder | apparent Kd |
| --- | --- |
| B1 | inactive: no binding seen |
| B2 | inactive: no binding seen |
| B3 | inactive: no binding seen |
| B4 | inactive: no binding seen |
| B5 | inactive: no binding seen |
| B6 | inactive: no binding seen |
| B7 | inactive: no binding seen |
| B8 | inactive: no binding seen |
| B9 | inactive: no binding seen |
| B10 | inactive: no binding seen |
| B11 | inactive: no binding seen |
| B12 | inactive: no binding seen |
| B13 | inactive: no binding seen |
| B14 | inactive: no binding seen |
| B15 | inactive: no binding seen |
| B16 | inactive: no binding seen |
| B17 | inactive: no binding seen |
| B18 | inactive: no binding seen |

An excerpt from further up, as a working copy:

| Binder | apparent Kd |
| --- | --- |
| B3 | inactive: no binding seen |
| B4 | inactive: no binding seen |
| B5 | inactive: no binding seen |
| B6 | inactive: no binding seen |
| B7 | inactive: no binding seen |
